Test results published in paper PMC9197078, “The small nonstructural protein NP1 of human bocavirus 1 directly interacts with Ku70 and RPA70 and facilitates viral DNA replication” (PLoS Pathogens, 2022).
Results are given in words; binding and its absence hold for the method and conditions named. Binding seen in cells or lysates may run through a third protein. These calls come from enrichment with a bait or labelling near it, and not all partners need be listed. Sequences can lack the tags named with a protein.

Amino acid sequences for entries named in this document (tags omitted).
UniProt P12956: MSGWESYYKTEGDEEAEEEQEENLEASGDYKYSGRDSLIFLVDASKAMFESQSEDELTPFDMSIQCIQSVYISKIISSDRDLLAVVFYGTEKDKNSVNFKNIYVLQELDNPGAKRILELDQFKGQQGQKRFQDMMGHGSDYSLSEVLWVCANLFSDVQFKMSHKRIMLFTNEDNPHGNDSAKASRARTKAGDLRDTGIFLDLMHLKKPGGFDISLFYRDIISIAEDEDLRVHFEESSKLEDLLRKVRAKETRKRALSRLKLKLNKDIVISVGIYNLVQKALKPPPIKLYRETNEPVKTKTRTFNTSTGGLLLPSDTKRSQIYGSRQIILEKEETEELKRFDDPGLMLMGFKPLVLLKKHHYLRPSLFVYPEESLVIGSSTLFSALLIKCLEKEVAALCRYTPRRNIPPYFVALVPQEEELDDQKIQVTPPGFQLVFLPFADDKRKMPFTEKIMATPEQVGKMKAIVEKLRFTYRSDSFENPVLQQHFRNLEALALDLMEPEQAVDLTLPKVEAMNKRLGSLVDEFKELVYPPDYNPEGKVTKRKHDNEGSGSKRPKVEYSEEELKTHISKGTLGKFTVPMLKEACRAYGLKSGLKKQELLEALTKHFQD
UniProt O43143: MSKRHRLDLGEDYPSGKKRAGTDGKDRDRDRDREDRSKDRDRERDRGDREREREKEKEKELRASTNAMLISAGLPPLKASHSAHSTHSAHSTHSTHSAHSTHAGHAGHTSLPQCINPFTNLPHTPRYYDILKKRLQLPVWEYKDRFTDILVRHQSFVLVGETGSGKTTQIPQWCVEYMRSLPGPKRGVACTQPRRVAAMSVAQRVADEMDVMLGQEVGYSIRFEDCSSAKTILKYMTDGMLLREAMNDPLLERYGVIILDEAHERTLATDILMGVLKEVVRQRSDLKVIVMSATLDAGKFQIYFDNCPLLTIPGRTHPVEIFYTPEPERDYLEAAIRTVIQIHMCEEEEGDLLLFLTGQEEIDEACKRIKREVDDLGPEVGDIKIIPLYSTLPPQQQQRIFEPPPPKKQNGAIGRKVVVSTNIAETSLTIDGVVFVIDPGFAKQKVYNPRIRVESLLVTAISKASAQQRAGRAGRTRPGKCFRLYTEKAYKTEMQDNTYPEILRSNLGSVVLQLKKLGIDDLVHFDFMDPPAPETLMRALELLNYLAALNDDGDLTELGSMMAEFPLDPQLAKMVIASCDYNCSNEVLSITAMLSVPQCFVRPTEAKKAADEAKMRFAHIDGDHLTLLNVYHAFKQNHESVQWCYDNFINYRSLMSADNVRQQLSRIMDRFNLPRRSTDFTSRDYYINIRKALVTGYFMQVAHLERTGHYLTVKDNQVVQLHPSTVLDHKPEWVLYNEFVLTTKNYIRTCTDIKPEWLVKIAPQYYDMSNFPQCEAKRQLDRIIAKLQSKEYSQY
UniProt P27694: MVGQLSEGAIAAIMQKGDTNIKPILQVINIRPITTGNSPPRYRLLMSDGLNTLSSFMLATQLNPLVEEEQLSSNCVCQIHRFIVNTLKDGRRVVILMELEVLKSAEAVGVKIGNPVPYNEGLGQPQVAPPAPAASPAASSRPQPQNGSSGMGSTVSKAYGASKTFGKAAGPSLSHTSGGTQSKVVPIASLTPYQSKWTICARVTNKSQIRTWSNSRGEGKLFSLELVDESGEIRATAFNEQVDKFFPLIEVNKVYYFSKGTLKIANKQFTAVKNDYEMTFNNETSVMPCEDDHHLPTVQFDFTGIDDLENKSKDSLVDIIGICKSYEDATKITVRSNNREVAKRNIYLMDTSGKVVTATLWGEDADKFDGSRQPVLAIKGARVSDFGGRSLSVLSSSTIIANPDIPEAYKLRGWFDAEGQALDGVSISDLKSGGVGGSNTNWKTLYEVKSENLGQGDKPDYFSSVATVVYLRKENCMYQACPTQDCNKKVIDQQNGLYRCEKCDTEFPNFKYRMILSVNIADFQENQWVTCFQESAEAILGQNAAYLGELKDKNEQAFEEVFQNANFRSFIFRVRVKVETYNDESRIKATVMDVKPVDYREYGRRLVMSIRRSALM
UniProt P67809: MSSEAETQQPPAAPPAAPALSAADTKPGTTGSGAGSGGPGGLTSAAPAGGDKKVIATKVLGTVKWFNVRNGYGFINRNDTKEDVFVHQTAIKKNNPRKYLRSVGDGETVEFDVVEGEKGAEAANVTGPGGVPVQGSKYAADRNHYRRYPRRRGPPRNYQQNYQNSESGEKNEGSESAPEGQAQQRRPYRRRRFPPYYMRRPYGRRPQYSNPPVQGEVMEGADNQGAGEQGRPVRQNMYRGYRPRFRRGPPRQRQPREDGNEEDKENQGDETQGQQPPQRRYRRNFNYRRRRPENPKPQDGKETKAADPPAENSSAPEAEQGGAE

Target: T1, Flag-tagged HBoV1 NP1 (NP1^Flag) (human bocavirus 1 (HBoV1)) (UniProt Q3YPH5)
T1 sequence: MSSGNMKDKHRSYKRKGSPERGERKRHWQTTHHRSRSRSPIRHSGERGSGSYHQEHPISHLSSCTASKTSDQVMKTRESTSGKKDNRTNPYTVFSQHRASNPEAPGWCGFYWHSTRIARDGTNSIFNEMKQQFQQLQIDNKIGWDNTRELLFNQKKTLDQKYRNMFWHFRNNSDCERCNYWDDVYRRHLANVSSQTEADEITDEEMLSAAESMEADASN
Experiment: affinity purification with mass spectrometry; HEK293 co-transfected with pIHBoV1^ΔNP1 and pCI-NP1^Flag; lysate (50 mM Tris pH7.5, 150 mM NaCl, 0.5% NP-40, 1 mM EDTA, 10% glycerol) with anti-Flag or control IgG and protein G beads, 4°C; unique gel bands and sections to MS; no nuclease

**Q.** How did the binding turn out when “ATP-dependent DNA helicase II 70 KDa (Ku70) (endogenous) (from UniProt P12956 1-609)” was run?
**A.** The binding was “binds”.

**Q.** With DHX15/DDX15 (from UniProt O43143 1-795) as the molecule, how does the binding read?
**A.** The binding was “binds”.

**Q.** Which binding does the source give for “RPA70 (endogenous) (from UniProt P27694 1-616)” here?
**A.** Its binding is “binds”.

**Q.** “Y-box binding protein 1 (YBX1) (from UniProt P67809 1-324)” was tested. Which binding did it give?
**A.** Its binding is “binds”.

B1: DExH-box helicase 30 (DHX30/DDX30) (protein, UniProt Q7L2E3 1-1194)
chain: MFSLDSFRKDRAQHRQRQCKLPPPRLPPMCVNPTPGGTISRASRDLLKEFPQPKNLLNSVIGRALGISHAKDKLVYVHTNGPKKKKVTLHIKWPKSVEVEGYGSKKIDAERQAAAAACQLFKGWGLLGPRNELFDAAKYRVLADRFGSPADSWWRPEPTMPPTSWRQLNPESIRPGGPGGLSRSLGREEEEDEEEELEEGTIDVTDFLSMTQQDSHAPLRDSRGSSFEMTDDDSAIRALTQFPLPKNLLAKVIQIATSSSTAKNLMQFHTVGTKTKLSTLTLLWPCPMTFVAKGRRKAEAENKAAALACKKLKSLGLVDRNNEPLTHAMYNLASLRELGETQRRPCTIQVPEPILRKIETFLNHYPVESSWIAPELRLQSDDILPLGKDSGPLSDPITGKPYVPLLEAEEVRLSQSLLELWRRRGPVWQEAPQLPVDPHRDTILNAIEQHPVVVISGDTGCGKTTRIPQLLLERYVTEGRGARCNVIITQPRRISAVSVAQRVSHELGPSLRRNVGFQVRLESKPPSRGGALLFCTVGILLRKLQSNPSLEGVSHVIVDEVHERDVNTDFLLILLKGLQRLNPALRLVLMSATGDNERFSRYFGGCPVIKVPGFMYPVKEHYLEDILAKLGKHQYLHRHRHHESEDECALDLDLVTDLVLHIDARGEPGGILCFLPGWQEIKGVQQRLQEALGMHESKYLILPVHSNIPMMDQKAIFQQPPVGVRKIVLATNIAETSITINDIVHVVDSGLHKEERYDLKTKVSCLETVWVSRANVIQRRGRAGRCQSGFAYHLFPRSRLEKMVPFQVPEILRTPLENLVLQAKIHMPEKTAVEFLSKAVDSPNIKAVDEAVILLQEIGVLDQREYLTTLGQRLAHISTDPRLAKAIVLAAIFRCLHPLLVVVSCLTRDPFSSSLQNRAEVDKVKALLSHDSGSDHLAFVRAVAGWEEVLRWQDRSSRENYLEENLLYAPSLRFIHGLIKQFSENIYEAFLVGKPSDCTLASAQCNEYSEEEELVKGVLMAGLYPNLIQVRQGKVTRQGKFKPNSVTYRTKSGNILLHKSTINREATRLRSRWLTYFMAVKSNGSVFVRDSSQVHPLAVLLLTDGDVHIRDDGRRATISLSDSDLLRLEGDSRTVRLLKELRRALGRMVERSLRSELAALPPSVQEEHGQLLALLAELLRGPCGSFDVRKTADD
**Q.** For B1, which binding is on record?
**A.** The binding was “binds”.
